Consider five molecules from US20160009801A1 (EMORY UNIVERSITY, published 2016).

Results are given in words; binding and its absence hold for the method and conditions named. Binding calls can cover weak binding; strength is not graded here.

B1: monoclonal antibody 1H5 (antibody, IgG3, V domains shown)
VH: EVKLVESGGGLVKPGGSLKLSCAASGFAFSSYDMSWVRQTPEKRLEWVATISSGGSYTFYPESVKGRITVYRDNARNTLYLQMSSLRSEDTALYYCATLHYNYERGAVDYWGQGTSVTVSS
VL: DVVVTQTPSSMYASLGERVSITCKASQDINRYLSWIQQKPGKSPKTLIYRTDRLVEGAPSRFSGSGSGQDYSLTISSLEYEDMGIYNCLQYDEFPVTFGAGTKLEIKR
B2: monoclonal antibody 15C6 (antibody, V domains shown)
VH: QVTLKESGPGILQPSQTLSLTCSFSGFSLSTSNMGVVWIRQSSGKGLEWLLHILWNDGKFYNPALKSRLTISKDTYNNQVFLKIANVDTADTATYYCARLFSTTTSGYFDVWGAGTTVTVSS
VL: DIQMTQSPASLSASVGETVTITCRASGNIHNYLAWYQQKQGKSPQLLVYNAETLADGVPSRFSGSESGTQYSLKINSLQPEDFGTYYCQHFWDTPWTFGGGTKLEIK
notes: Mouse hybridoma mAb; also called 15C6.D3
B3: monoclonal antibody 2B9 (antibody, IgG2b, V domains shown)
VH: IQLVQSGPELKKPGETVKISCKASGYTFTDYAMHWVKQAPAKGLKWMGWINTETGEPTYADDFKGRFAFSLETSASTAYLQINNLKNEDTATYFCAGDPLDYWGQGTTLTVSS
VL: DVVVTQTPLSLPVSFGDQVSISCRSSQSLANSYGNTYLSWYLHKPGQSPQLLIYEISNRFSGVSDRFSGSGSGTDFTLKISTIKPEDLGIYYCLQGTHQPWTFGGGTKLEIK
B4: monoclonal antibody 2D2 (antibody, V domains shown)
VH: QIQLVQSGPELKKPGETVKISCKASGYTFTDYAMHWVKQAPAKGLKWMGWINTETGEPTYADDFKGRFAFSLETSASTAYLQINNLKNEDTATYFCAGDPLDYWGQGTTLTVSS
VL: DVVVTQTPLSLPVSFGDQVSISCRSSQSLANSYGNTYLSWYLHKPGQSPQLLIYEISNRFSGVSDRFSGSGSGTDFTLKISTIKPEDLGIYYCLQGTHQPWTFGGGTKLEIK
B5: monoclonal antibody 3D1 (antibody, V domains shown)
VH: QIQLVQSGPELKKPGETVKISCKASGYTFTDFAMHWVKQAPRKGLKWMGWINTETGEPTYADDFKGRFAFSLGTSASTAFLQINNLKNEDTATYFCSSDPLDYWGQGTTLTVSS
VL: DVVVTQTPLSLPVSFGDQVSISCRSSQSLTNSYGNTYLSWFLHKPGQSPQLLIYEISNRFSGVPDRFSGSGSGTDFTLKISTIKPEDLGIYYCLQGTHQPWTFGGGTKLEIK
notes: Mouse hybridoma mAb; also called 3D1.C1; 3D1.E3

The experiment deals with purified human GPIb-IX complex (human). Nature of the experiment: ELISA on immobilized purified human GPIb-IX. (In an ELISA, binding on a coated surface is turned into a signal by an enzyme label.)
Turning to B1, the binding entry was “binds”.

In the case of B2, the binding entry is “binds”.

For B3, the binding entry is “binds”.

As to B4, the binding result is “binds”.

In the case of B5, the binding entry is recorded as “binds”.
